The text below walks through data of the supplement of paper PMC10849652.

By UniProt entry, the sequences of proteins in these tests, tags left out. Where a name states a change or a piece, a line headed by the entry shows the natural chain unless it says otherwise.
UniProt Q8NEM0: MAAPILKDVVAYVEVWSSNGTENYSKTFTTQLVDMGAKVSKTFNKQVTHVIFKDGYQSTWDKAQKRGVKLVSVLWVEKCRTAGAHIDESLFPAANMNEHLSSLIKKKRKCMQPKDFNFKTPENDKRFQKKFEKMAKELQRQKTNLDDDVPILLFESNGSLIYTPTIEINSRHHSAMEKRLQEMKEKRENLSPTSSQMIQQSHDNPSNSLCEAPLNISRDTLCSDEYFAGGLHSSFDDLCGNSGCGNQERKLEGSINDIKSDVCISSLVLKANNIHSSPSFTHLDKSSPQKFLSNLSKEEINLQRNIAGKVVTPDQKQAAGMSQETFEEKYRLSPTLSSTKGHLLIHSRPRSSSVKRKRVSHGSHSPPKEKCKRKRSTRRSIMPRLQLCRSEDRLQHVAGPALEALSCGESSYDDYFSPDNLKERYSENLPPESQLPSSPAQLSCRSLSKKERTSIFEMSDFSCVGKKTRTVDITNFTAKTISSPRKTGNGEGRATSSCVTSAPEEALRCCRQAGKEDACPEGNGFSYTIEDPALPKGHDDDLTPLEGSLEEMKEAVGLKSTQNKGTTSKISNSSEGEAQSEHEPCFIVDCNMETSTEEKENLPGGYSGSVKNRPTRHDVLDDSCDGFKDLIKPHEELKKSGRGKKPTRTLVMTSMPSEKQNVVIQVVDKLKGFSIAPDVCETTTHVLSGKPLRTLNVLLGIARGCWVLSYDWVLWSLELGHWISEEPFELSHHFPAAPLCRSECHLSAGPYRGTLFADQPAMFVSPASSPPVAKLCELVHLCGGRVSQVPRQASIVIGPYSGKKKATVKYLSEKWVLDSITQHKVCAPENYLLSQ
UniProt Q06413, whole entry, looked up: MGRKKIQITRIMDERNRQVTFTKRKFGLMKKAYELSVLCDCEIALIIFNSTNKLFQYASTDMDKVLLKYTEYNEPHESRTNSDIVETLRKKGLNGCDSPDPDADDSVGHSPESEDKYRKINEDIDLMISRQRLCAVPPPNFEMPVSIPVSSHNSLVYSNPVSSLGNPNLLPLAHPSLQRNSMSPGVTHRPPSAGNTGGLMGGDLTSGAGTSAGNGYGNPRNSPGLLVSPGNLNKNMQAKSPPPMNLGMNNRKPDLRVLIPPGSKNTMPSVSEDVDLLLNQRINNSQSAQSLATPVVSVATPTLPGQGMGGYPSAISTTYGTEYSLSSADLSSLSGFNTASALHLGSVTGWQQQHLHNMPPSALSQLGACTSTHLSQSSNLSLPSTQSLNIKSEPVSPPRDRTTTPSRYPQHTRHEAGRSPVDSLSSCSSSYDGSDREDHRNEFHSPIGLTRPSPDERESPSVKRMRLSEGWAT
UniProt A6NJ78: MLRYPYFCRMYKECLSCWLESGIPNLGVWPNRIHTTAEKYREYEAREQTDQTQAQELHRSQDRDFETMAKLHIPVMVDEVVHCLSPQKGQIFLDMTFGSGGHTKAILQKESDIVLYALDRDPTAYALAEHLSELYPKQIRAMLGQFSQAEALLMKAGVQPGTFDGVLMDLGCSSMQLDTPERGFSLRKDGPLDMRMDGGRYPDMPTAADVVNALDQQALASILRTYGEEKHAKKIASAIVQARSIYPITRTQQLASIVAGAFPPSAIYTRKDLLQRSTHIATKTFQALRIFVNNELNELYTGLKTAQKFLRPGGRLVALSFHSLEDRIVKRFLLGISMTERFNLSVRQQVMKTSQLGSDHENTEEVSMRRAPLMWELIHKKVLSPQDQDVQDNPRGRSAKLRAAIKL
UniProt Q8TCB7: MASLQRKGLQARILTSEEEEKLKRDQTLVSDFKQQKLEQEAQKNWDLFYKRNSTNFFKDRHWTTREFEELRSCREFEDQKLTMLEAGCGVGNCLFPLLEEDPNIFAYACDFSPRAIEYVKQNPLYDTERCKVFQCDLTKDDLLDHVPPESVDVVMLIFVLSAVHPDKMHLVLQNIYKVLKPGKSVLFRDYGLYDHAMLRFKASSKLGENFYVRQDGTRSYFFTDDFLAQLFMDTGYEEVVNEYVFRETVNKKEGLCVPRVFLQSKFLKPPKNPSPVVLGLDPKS
UniProt Q9Y3C7: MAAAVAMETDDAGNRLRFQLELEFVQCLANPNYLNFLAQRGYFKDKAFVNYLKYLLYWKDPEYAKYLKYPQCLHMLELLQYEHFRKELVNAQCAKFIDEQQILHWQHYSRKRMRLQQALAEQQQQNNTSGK
UniProt Q9NWR8: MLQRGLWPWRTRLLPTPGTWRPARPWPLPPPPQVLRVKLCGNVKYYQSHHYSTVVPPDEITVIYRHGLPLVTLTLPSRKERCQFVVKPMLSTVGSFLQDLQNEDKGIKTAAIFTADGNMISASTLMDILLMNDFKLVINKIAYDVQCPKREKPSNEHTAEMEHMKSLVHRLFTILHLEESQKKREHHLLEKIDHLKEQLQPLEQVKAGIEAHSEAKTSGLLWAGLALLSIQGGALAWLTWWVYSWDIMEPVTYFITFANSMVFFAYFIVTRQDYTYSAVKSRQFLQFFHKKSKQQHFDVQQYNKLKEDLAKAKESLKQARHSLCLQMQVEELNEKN
UniProt Q8IX19: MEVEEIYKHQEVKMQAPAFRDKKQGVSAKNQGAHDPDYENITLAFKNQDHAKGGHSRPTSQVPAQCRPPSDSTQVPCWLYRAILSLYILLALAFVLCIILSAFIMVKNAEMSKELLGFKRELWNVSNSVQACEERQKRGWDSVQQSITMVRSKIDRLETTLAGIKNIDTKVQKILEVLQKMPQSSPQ
UniProt O00470: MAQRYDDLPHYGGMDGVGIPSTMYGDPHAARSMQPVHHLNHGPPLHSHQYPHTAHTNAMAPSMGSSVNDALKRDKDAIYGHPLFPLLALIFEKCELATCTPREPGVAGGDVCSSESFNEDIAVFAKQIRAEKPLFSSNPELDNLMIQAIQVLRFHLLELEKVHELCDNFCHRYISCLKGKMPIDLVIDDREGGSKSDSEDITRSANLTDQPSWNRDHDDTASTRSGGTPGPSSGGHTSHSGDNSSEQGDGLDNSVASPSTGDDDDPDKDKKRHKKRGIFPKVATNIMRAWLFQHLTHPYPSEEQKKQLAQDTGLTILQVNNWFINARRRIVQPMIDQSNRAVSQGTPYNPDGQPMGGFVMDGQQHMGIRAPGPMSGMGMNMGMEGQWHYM
UniProt Q9H1A3: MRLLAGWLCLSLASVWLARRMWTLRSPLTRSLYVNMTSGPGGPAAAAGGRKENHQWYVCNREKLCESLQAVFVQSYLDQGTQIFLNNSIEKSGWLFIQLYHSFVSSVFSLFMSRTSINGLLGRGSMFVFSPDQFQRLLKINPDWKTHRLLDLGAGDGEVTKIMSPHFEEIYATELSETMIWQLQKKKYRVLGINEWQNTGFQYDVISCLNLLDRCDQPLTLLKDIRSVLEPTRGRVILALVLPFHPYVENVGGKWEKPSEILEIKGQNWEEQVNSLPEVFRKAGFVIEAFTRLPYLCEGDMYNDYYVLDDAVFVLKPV
UniProt P21741: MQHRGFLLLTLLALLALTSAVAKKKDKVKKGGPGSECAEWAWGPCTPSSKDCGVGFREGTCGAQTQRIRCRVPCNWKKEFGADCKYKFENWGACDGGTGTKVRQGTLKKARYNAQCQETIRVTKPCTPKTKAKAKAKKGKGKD
UniProt O75586: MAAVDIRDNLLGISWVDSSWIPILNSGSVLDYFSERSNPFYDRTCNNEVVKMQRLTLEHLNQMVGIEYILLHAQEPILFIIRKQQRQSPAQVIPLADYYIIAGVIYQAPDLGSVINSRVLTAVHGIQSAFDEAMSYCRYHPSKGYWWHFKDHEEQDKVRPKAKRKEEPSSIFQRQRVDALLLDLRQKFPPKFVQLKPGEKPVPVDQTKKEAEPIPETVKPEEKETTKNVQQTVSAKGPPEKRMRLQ
UniProt Q9NWA0: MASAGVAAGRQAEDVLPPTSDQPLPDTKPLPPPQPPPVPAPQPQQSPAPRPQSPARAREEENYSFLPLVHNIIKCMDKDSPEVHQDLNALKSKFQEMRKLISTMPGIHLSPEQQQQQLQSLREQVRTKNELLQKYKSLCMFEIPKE
UniProt Q13503: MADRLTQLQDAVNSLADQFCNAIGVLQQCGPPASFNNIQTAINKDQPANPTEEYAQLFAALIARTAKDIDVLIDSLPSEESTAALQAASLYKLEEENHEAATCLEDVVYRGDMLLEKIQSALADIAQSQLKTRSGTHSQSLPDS
UniProt Q9NX70: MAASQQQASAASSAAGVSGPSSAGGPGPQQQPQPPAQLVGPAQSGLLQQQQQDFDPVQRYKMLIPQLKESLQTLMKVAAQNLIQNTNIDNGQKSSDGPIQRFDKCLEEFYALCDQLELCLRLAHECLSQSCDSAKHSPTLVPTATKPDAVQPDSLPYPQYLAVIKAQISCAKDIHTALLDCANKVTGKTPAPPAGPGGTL
UniProt Q5U5Q3: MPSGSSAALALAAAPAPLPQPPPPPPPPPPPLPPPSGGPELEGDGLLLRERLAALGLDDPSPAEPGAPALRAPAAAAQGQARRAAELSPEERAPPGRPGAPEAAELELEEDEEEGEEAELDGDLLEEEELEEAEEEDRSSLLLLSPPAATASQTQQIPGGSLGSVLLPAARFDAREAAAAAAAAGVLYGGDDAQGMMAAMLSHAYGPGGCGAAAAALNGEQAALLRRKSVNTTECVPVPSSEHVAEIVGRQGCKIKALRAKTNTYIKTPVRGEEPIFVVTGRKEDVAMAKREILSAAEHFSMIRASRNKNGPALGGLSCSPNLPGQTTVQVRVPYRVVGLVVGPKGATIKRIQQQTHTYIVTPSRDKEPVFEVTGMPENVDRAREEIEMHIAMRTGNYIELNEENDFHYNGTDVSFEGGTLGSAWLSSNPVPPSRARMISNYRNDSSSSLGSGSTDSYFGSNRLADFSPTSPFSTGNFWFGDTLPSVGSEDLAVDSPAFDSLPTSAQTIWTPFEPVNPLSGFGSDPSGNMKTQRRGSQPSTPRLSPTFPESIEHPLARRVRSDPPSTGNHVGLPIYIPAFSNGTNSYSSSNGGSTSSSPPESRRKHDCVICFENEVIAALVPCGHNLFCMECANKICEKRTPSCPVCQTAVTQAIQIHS
UniProt Q6P1Q9: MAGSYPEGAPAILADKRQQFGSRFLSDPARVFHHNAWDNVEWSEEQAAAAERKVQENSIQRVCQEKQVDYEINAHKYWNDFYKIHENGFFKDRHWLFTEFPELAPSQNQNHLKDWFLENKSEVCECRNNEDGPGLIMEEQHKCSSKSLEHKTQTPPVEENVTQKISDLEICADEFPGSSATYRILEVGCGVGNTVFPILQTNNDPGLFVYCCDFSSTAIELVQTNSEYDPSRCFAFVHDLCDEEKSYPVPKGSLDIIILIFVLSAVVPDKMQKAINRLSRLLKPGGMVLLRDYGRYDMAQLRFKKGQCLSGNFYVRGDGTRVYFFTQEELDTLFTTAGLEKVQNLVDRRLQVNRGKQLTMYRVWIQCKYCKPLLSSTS
UniProt Q8N6Q8: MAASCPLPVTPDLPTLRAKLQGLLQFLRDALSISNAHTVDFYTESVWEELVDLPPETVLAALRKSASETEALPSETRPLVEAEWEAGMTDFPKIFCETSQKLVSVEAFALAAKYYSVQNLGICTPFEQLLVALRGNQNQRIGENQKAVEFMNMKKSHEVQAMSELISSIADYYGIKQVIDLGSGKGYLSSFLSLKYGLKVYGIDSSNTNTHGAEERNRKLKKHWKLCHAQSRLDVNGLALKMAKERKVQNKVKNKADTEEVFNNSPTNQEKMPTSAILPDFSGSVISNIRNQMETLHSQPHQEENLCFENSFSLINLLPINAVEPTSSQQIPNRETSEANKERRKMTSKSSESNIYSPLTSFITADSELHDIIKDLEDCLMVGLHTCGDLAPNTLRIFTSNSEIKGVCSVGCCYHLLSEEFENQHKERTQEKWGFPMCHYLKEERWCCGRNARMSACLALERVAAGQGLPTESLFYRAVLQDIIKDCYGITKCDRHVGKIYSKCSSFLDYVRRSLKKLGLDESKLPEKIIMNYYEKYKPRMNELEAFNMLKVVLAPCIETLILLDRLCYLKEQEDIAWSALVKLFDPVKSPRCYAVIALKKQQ
UniProt Q86XA0: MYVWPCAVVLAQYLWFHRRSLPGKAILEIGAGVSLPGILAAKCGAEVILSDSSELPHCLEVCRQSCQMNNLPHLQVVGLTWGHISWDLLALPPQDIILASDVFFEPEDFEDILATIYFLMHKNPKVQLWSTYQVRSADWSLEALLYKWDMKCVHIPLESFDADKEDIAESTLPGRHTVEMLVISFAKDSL
UniProt Q9H7H0: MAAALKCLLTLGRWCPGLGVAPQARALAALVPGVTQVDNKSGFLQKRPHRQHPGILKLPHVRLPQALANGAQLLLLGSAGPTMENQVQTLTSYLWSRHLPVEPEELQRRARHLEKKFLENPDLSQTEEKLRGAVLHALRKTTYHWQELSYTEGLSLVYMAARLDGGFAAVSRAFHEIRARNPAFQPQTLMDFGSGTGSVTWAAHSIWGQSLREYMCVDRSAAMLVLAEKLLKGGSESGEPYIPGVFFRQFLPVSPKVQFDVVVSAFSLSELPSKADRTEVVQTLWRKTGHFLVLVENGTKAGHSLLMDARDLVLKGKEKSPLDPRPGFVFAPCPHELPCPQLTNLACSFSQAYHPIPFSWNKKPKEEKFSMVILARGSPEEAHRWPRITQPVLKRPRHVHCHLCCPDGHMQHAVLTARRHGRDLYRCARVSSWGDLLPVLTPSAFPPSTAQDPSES

The other results are listed elsewhere or left out.

Compound in the first assay: O=C1NC(=O)C(c2cnc3ccccn23)=C1c1cn2c3c(cc(F)cc13)CN(C(=O)N1CCCCC1)CC2
In words: log2 fold change, soluble protein after heating vs DMSO (PISA); higher = thermal stabilisation; K562 lysate, 10 uM; active = over 0.2 and 3.5 SD of the protein, either way, in both replicates (recomputed). The gist of the method:
(§1)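 Thermal stability, expressed as log-two fold change relative to solvent controls, is given from duplicates. Crude K562 extract in PBS pH 7.4 with 1 mM MgCl2, at 1 mg/mL protein, was treated with 10 μM compound for 30 min and heated in aliquots for 3 min across 48°C-58°C. After pooling, adjustment to 0.5% NP-40 at 4°C and centrifugation at 21,000xg for 90 min, supernatant protein was measured by TMTpro 16plex LC-MS/MS with channel sums equalised.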
As to MCPH1 (UniProt Q8NEM0), the log2 fold change was inactive: 0.056.

Turning to MBTD1 (UniProt Q05BQ5), the log2 fold change was inactive: 0.095. Regarding MEF2C isoform 2 (UniProt Q06413), the log2 fold change was inactive: -0.016.

Regarding METTL15 (UniProt A6NJ78), the log2 fold change was inactive: 0.06. Consider MCTS2P, A0A3B3IRV3, for which the log2 fold change was inactive: 0.072.

METTL6 (UniProt Q8TCB7): the log2 fold change was inactive: -0.043. On the same count and under the same terms, then MED28 (UniProt Q9H204), with inactive: 0.09; and MDM4 (UniProt O15151), with inactive: 0.025.

For MFSD14B (UniProt Q5SR56), the log2 fold change is inactive: 0.276. As to MED31 (UniProt Q9Y3C7), the log2 fold change was inactive: -0.012.

Consider MBTPS2 (UniProt O43462), for which the log2 fold change was inactive: 0.084. In the case of METTL5 (UniProt H0YFV5), the log2 fold change was inactive: 0.307. Take MED25 isoform 3 (UniProt Q71SY5): the log2 fold change was inactive: 0.024. On the same count and under the same terms, then MBD4 (UniProt O95243), with inactive: -0.024; and MEGF8 (UniProt Q7Z7M0), with inactive: 0.02; and MCUB (UniProt Q9NWR8), with inactive: 0.027. For the target MCEMP1 (UniProt Q8IX19), the log2 fold change is inactive: -0.004. Turning to MEIS1 (UniProt O00470), the log2 fold change was inactive: 0.108. On the same count and under the same terms, then METTL9 (UniProt Q9H1A3), with inactive: 0.097. With MDK (UniProt P21741), the log2 fold change is inactive: 0.01.

Turning to MED6 (UniProt O75586), the log2 fold change is inactive: -0.08. Still for that read-out and setting: then MED19 (UniProt A0JLT2), with inactive: 0. The same measure, in the same setting: then MFSD4B (UniProt Q5TF39), with inactive: -0.26; and MED9 (UniProt Q9NWA0), with inactive: 0.016; and MED21 (UniProt Q13503), with inactive: 0.044. The same measure, in the same setting: then MED29 (UniProt Q9NX70), with inactive: 0.015.

As to MEX3C (UniProt Q5U5Q3), the log2 fold change was inactive: 0.096. Same read-out and setting: then METTL21A (UniProt Q8WXB1), with inactive: -0.013; and METTL2B (UniProt Q6P1Q9), with inactive: -0.166.

Compound in the next assay: c1cn2cc(-c3ccc4cn[nH]c4c3)nc(Nc3ccc(N4CCOCC4)cc3)c2n1 [entospletinib]
The assay is described as above. The gist of the method:
as §1
Regarding MFAP4 isoform 2 (UniProt P55083), the log2 fold change is inactive: -0.008. Still for that read-out and setting: then MEF2C isoform 2 (UniProt Q06413), with inactive: -0.067; and METAP2 isoform 2 (UniProt P50579), with inactive: 0.037. For METTL6 (UniProt Q8TCB7), the log2 fold change is inactive: 0.026. Consider MDM4 (UniProt O15151), for which the log2 fold change is inactive: -0.417.

In the case of MFSD14B (UniProt Q5SR56), the log2 fold change was inactive: 0.07. On the same count and under the same terms, then MBTPS2 (UniProt O43462), with inactive: 0.065; and MFSD6 (UniProt Q6ZSS7), with inactive: -0.11; and MED25 isoform 3 (UniProt Q71SY5), with inactive: 0.127. Same read-out and setting: then MBD4 (UniProt O95243), with inactive: 0.088. With MEGF8 (UniProt Q7Z7M0), the log2 fold change is inactive: -0.048. Take MEX3B (UniProt Q6ZN04): the log2 fold change was inactive: 0.039. Same read-out and setting: then METTL25 (UniProt Q8N6Q8), with inactive: 0.017; and MEIS1 (UniProt O00470), with inactive: 0.121; and MEGF9 (UniProt Q9H1U4), with inactive: 0.171. Turning to MDK (UniProt P21741), the log2 fold change is inactive: 0.124. Same read-out and setting: then MED6 (UniProt O75586), with inactive: -0.159; and MFSD4B (UniProt Q5TF39), with inactive: 0.053; and METTL23 (UniProt Q86XA0), with inactive: 0.046.

On to MED21 (UniProt Q13503), for which the log2 fold change is inactive: -0.003. Same read-out and setting: then METTL17 isoform 3 (UniProt Q9H7H0), with inactive: -0.05.
